Source: PMC11227718
These are yes or no findings as the source states them, for the method shown. In cells and extracts the contact can be indirect. Some results given as binding are weak or reduced against the parent protein; the word gives no strength.

By UniProt entry, the sequences of proteins in these tests, tags left out.
UniProt Q9P219: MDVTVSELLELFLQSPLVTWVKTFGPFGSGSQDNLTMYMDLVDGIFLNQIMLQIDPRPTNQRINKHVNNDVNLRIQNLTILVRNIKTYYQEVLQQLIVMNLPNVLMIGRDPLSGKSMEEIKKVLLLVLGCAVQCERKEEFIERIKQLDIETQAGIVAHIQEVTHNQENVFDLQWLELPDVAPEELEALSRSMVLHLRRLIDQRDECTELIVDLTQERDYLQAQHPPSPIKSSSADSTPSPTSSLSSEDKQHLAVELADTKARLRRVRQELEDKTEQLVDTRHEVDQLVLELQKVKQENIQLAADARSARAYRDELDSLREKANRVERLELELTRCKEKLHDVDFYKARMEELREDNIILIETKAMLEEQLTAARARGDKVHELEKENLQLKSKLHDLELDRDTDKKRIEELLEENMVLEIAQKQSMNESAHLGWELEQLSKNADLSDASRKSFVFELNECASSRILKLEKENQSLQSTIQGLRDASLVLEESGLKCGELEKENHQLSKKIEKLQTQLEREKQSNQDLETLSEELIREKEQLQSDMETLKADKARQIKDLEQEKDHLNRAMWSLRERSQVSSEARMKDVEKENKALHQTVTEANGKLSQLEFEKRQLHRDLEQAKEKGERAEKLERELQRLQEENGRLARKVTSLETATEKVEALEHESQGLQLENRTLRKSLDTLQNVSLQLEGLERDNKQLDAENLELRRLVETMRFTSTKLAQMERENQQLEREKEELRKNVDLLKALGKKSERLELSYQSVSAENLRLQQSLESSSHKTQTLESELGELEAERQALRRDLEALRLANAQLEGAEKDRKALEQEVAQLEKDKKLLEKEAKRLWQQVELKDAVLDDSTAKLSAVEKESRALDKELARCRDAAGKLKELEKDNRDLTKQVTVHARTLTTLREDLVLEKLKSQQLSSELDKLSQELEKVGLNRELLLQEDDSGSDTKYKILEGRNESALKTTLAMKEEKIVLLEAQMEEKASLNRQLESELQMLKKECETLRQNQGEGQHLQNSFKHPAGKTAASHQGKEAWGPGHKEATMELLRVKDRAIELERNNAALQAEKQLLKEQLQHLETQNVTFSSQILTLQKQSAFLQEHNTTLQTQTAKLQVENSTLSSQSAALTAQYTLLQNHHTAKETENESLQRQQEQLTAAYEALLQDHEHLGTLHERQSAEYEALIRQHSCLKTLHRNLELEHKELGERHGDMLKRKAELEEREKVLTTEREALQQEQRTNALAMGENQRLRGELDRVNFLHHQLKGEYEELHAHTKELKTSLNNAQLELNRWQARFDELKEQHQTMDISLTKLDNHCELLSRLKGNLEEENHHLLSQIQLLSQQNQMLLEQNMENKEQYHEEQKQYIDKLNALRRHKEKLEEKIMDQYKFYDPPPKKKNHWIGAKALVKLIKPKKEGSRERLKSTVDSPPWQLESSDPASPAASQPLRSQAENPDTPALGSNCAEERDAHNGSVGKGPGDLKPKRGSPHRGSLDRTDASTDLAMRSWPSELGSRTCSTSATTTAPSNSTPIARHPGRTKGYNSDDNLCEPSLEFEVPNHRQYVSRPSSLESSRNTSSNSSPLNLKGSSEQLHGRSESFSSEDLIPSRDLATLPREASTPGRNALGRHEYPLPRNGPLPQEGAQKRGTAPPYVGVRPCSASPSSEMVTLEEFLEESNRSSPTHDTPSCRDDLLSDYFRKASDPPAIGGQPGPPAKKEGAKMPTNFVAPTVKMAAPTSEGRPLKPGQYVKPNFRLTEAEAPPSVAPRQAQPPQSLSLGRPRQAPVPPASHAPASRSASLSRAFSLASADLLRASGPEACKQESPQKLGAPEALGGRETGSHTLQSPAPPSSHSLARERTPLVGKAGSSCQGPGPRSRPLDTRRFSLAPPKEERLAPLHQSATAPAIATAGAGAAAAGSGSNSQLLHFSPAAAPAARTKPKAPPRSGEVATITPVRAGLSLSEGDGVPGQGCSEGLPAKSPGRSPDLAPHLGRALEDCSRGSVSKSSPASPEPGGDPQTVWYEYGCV

Biological target: Coiled-coil domain containing 88C (human (endogenous in breast cancer cell lines)) (UniProt Q9P219)
Experiment: co-IP; anti-GALNT6 or anti-CCDC88C antibody immobilised on AminoLink plus coupling resin; cell lysates in Native lysis buffer with 1 mM PMSF incubated with the resin for 2 h; eluate analysed by immunoblotting; endogenous proteins

binding: binds
B1: polypeptide N-acetylgalactosaminyltransferase 6 (enzyme, UniProt Q8NCL4 1-622)
chain: MRLLRRRHMPLRLAMVGCAFVLFLFLLHRDVSSREEATEKPWLKSLVSRKDHVLDLMLEAMNNLRDSMPKLQIRAPEAQQTLFSINQSCLPGFYTPAELKPFWERPPQDPNAPGADGKAFQKSKWTPLETQEKEEGYKKHCFNAFASDRISLQRSLGPDTRPPECVDQKFRRCPPLATTSVIIVFHNEAWSTLLRTVYSVLHTTPAILLKEIILVDDASTEEHLKEKLEQYVKQLQVVRVVRQEERKGLITARLLGASVAQAEVLTFLDAHCECFHGWLEPLLARIAEDKTVVVSPDIVTIDLNTFEFAKPVQRGRVHSRGNFDWSLTFGWETLPPHEKQRRKDETYPIKSPTFAGGLFSISKSYFEHIGTYDNQMEIWGGENVEMSFRVWQCGGQLEIIPCSVVGHVFRTKSPHTFPKGTSVIARNQVRLAEVWMDSYKKIFYRRNLQAAKMAQEKSFGDISERLQLREQLHCHNFSWYLHNVYPEMFVPDLTPTFYGAIKNLGTNQCLDVGENNRGGKPLIMYSCHGLGGNQYFEYTTQRDLRHNIAKQLCLHVSKGALGLGSCHFTGKNSQVPKDEEWELAQDQLIRNSGSGTCLTSQDKKPAMAPCNPSDPHQLWLFV
